No constants are given. Whether binding was seen depends on the method and setting. In cells and extracts the contact can be indirect. Some entries that bind do so weakly or less than the wild type.
Key:
[1] = biological target: EZH2 (C3H10T1/2 cells) (mouse (endogenous in C3H10T1/2)) (UniProt Q61188); assay: proximity ligation; Duolink II Fluorescence PLA kit on control or SS18-SSX1-V5-expressing C3H10T1/2 cells, fixed in 4% paraformaldehyde, permeabilised with 0.3% triton; foci counted in five fields
[2] = biological target: RING1B (C3H10T1/2 cells) (mouse (endogenous in C3H10T1/2)) (UniProt Q9CQJ4); assay: as above
[3] = biological target: RING1B (HSSYII cells) (human (endogenous in HSSYII)) (UniProt Q99496); assay: proximity ligation; Duolink II Fluorescence PLA kit on HSSYII cells (endogenous HA-tagged SS18-SSX1), fixed in 4% paraformaldehyde, permeabilised with 0.3% triton; with or without CRISPR-mediated USP7 removal

The chains behind the UniProt entries cited, without tags or fusion partners.
UniProt Q61188: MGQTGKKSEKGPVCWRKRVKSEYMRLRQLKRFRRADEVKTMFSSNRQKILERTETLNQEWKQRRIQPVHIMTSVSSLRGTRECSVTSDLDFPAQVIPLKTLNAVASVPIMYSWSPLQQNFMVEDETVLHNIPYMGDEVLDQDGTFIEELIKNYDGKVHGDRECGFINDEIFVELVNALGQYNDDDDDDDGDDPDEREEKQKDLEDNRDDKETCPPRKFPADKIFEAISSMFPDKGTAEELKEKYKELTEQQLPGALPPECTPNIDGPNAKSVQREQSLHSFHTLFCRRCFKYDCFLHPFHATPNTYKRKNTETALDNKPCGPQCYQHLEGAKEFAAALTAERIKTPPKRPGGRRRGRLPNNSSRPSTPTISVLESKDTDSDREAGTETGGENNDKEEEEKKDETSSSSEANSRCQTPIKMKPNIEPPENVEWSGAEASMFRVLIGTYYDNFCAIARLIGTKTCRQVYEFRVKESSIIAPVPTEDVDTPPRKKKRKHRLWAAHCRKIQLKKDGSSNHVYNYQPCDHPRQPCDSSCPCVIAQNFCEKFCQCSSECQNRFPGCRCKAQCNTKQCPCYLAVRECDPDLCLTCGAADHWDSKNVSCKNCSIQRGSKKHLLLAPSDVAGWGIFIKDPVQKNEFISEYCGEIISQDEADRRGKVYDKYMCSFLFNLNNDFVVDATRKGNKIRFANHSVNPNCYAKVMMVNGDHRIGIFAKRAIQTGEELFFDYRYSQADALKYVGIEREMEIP
UniProt Q9CQJ4: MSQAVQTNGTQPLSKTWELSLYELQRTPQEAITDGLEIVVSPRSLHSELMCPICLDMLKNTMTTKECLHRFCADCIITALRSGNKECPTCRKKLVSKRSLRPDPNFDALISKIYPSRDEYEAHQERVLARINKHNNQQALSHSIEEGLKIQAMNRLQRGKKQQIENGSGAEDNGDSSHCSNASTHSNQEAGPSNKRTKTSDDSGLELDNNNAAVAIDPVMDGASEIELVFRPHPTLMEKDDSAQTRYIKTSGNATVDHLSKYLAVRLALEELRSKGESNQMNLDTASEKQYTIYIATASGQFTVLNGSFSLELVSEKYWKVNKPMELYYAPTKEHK
UniProt Q99496: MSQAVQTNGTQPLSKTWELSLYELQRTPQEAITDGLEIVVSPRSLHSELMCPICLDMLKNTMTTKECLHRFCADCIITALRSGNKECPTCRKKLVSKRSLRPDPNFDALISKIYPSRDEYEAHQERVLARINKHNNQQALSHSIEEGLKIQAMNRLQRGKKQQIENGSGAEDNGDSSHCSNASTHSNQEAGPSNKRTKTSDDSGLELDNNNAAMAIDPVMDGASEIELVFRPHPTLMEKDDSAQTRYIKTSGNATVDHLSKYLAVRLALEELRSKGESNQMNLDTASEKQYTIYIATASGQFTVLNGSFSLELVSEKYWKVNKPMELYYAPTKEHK
UniProt Q921E6: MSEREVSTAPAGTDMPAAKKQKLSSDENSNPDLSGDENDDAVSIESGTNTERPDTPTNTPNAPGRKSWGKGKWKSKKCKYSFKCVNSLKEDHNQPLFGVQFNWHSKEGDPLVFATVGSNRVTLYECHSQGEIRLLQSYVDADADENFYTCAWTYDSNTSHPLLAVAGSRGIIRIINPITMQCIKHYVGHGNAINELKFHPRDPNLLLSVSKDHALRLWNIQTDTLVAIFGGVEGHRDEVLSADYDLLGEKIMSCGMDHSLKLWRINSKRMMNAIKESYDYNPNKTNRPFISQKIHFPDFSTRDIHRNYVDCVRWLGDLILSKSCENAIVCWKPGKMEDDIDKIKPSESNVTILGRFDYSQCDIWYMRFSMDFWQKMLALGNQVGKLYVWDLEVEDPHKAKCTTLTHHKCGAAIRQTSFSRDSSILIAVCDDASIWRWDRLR

“EED (C3H10T1/2 cells) (from UniProt Q921E6 1-441)” was tested, and the binding [1] was “binds”.

B1: RYBP (C3H10T1/2 cells) (protein, UniProt Q8CCI5 1-228)
chain: MTMGDKKSPTRPKRQAKPAADEGFWDCSVCTFRNSAEAFKCSICDVRKGTSTRKPRINSQLVAQQVAQQYATPPPPKKEKKEKVEKPDKEKPEKDKDISPSVTKKNTNKKTKPKSDILKDPPSEANSIQSANATTKTSETNHTSRPRLKNVDRSTAQQLAVTVGNVTVIITDFKEKTRSSSTSSSTVTSSAGSEQQNQSSSGSESTDKGSSRSSTPKGDMSAVNDESF
In the case of B1, the binding [2] is reported as “binds”.

B2: RYBP (HSSYII cells) (protein, UniProt Q8N488 1-228)
chain: MTMGDKKSPTRPKRQAKPAADEGFWDCSVCTFRNSAEAFKCSICDVRKGTSTRKPRINSQLVAQQVAQQYATPPPPKKEKKEKVEKQDKEKPEKDKEISPSVTKKNTNKKTKPKSDILKDPPSEANSIQSANATTKTSETNHTSRPRLKNVDRSTAQQLAVTVGNVTVIITDFKEKTRSSSTSSSTVTSSAGSEQQNQSSSGSESTDKGSSRSSTPKGDMSAVNDESF
With B2 the binding [3] was “binds”.

— paper PMC7768195
